The text below walks through data of publication PMC2806833.

Sequences of proteins named here, by UniProt entry; tags and fusion partners are left off. Residues count along the entry.
UniProt Q16512, residues 581-942: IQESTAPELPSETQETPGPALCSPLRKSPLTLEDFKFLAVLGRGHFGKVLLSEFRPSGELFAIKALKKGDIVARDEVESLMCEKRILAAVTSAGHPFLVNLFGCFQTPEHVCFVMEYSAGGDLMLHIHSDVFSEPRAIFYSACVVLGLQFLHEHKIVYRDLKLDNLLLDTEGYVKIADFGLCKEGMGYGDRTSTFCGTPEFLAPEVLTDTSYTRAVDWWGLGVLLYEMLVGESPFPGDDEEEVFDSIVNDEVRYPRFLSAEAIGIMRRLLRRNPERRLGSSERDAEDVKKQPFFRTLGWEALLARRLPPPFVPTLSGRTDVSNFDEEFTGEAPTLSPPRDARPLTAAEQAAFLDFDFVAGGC
UniProt P19332: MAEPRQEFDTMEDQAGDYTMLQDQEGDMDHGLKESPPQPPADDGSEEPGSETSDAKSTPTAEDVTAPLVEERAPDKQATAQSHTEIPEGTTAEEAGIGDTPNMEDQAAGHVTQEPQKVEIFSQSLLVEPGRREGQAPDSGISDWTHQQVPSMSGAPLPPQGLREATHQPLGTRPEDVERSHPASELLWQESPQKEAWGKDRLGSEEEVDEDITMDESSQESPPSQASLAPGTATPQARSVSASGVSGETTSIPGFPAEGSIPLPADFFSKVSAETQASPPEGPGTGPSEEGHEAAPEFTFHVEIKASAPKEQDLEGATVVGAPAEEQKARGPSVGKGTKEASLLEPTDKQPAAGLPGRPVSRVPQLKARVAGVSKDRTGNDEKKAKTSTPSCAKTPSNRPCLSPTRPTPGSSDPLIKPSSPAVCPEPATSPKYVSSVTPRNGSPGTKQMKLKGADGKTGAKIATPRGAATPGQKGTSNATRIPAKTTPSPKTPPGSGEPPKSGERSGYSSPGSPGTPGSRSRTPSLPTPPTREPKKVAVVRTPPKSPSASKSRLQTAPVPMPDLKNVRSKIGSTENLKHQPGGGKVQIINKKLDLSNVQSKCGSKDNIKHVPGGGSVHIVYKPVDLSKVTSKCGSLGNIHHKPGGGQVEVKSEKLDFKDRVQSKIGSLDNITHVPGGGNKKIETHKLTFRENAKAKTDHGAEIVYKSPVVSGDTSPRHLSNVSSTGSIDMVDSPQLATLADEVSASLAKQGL
UniProt P08592, residues 18-770: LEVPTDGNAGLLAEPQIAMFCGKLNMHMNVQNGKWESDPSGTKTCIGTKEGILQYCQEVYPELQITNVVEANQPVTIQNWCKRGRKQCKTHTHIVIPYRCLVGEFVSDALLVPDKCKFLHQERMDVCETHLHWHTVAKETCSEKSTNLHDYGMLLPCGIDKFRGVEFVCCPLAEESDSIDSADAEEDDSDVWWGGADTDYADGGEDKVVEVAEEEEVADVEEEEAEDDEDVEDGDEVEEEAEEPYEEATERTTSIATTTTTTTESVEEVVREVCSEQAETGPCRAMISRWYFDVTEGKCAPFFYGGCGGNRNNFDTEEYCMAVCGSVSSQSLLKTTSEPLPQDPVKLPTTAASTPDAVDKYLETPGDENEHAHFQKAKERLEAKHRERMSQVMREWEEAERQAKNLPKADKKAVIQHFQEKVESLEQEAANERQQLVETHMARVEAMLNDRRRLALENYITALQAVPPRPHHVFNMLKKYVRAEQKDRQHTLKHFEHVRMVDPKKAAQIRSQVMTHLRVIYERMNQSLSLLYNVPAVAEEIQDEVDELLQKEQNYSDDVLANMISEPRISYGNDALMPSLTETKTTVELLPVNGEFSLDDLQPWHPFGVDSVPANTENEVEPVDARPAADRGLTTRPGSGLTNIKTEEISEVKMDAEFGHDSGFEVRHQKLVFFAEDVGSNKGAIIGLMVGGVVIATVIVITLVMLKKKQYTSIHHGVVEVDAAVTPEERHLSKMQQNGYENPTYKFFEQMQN
UniProt P29476: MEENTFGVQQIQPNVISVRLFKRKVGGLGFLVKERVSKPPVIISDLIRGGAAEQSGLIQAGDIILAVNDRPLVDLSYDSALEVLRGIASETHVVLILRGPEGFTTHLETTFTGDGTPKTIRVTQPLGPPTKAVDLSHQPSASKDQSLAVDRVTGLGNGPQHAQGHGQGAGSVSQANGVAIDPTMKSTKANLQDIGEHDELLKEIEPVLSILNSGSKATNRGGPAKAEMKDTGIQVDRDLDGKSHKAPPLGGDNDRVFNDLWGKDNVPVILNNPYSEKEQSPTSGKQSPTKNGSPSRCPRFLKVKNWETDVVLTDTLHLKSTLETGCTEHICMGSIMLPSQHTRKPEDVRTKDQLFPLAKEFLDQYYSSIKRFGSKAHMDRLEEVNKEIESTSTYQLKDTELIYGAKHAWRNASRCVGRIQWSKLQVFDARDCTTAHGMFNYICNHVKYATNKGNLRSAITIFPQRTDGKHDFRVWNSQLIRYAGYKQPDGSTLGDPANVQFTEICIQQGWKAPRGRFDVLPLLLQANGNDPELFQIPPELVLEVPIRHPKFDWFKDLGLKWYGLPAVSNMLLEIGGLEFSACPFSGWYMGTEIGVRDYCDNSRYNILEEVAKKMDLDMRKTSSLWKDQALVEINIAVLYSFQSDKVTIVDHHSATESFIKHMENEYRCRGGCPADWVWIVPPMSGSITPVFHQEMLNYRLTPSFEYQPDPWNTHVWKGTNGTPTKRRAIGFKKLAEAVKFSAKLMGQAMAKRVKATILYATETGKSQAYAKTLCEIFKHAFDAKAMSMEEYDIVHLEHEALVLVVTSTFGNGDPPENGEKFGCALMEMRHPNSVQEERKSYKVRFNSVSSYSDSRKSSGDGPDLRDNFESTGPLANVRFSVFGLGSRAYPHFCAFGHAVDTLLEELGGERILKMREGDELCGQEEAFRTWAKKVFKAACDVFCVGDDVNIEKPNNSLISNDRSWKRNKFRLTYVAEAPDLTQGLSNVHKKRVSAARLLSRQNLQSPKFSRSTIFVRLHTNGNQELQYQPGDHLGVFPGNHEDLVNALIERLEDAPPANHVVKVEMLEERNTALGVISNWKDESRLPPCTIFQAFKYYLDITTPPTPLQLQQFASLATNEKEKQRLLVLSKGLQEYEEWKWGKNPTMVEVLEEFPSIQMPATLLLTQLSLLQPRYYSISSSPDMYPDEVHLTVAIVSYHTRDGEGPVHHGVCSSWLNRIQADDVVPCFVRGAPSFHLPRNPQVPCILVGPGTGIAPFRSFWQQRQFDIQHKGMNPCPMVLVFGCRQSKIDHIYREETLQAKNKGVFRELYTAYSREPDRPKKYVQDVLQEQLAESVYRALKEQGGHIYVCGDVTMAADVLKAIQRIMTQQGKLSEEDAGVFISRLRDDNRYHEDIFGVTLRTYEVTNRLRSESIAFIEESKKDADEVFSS

Where two headings read alike, the source gives them in different places. These are yes or no findings as the source states them, for the method shown. In cells and extracts the contact can be indirect. These calls come from enrichment with a bait or labelling near it, and not all partners need be listed. For some of these results: A no says only that the protein was not detected with the bait. For some of these results: Sequences can lack the tags named with a protein.

Assay in all cases: affinity purification with mass spectrometry; 5 nmol GST-fused kinase fragment immobilised on a 250 µl glutathione-sepharose column; rat brain cytosol or P2 fraction loaded; washed with buffer A (20 mM Tris/HCl pH 7.5, 1 mM EDTA, 1 mM DTT) and buffer A with 50 mM NaCl; 1 M NaCl eluate digested with trypsin, LC-MS/MS, Mascot; only the target purified
Assay [1] concerns the target GST-PKN-cat (581-942 amino acids) (UniProt Q16512).
In assay [2] the target is GST-Rho-kinase-cat (active catalytic fragment of Rho-kinase/ROCK/ROK, 6-553 amino acids) (UniProt Q28021).
In assay [3] the target is T1, GST-Rho-kinase-cat-KD (kinase-deficient mutant of Rho-kinase-cat, Lys121 replaced by Gly) (UniProt Q28021).
T1 sequence: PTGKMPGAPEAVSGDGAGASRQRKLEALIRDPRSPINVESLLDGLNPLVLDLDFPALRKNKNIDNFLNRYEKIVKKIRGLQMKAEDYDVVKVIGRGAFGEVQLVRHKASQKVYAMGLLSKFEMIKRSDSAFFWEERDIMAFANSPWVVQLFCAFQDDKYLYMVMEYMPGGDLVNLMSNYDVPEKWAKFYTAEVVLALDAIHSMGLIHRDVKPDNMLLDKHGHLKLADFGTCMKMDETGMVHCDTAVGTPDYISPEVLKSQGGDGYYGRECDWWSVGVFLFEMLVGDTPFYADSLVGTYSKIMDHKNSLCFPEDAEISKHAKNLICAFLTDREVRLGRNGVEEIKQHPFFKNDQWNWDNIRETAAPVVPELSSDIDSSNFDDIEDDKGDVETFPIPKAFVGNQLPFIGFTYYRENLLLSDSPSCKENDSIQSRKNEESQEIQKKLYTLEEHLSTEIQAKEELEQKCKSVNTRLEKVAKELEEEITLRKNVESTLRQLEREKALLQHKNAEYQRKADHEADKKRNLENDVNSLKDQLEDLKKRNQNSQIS

Assay [4] has as its target GST-PKN-cat (581-942 amino acids) (UniProt Q16512). The source holds these as a separate data set.
Assay [5] concerns the target GST-Rho-kinase-cat (active catalytic fragment of Rho-kinase/ROCK/ROK, 6-553 amino acids) (UniProt Q28021). The source holds these as a separate data set.
Assay [6] addresses T1, GST-Rho-kinase-cat-KD (kinase-deficient mutant of Rho-kinase-cat, Lys121 replaced by Gly). This is another data set of the same source.

In the case of Tau (from UniProt P19332 1-752), the binding result in assay [1] and in assay [2] was “binds” in each case.
Consider “amyloid precursor protein (APP) (from UniProt P08592 18-770)”, for which the binding result in assay [1] is on record as “binds weakly”; in assay [2] it was “binds”.
As for “brain spectrin (rat (endogenous in rat brain))”, in assay [3], the binding result is given as “no binding”.
For nNOS (from UniProt P29476 1-1429), the binding result in assay [2] is listed as “binds”; in assay [3] it was “no binding”.

B1: AP180 (protein, UniProt Q05140 1-915)
chain: MSGQTLTDRIAAAQYSVTGSAVARAVCKATTHEVMGPKKKHLDYLIQATNETNVNIPQMADTLFERATNSSWVVVFKALVTTHHLMVHGNERFIQYLASRNTLFNLSNFLDKSGSHGYDMSTFIRRYSRYLNEKAFSYRQMAFDFARVKKGADGVMRTMVPEKLLKSMPILQGQIDALLEFDVHPNELTNGVINAAFMLLFKDLIKLFACYNDGVINLLEKFFEMKKGQCKDALEIYKRFLTRMTRVSEFLKVADEVGIDKGDIPDLTQAPSSLMETLEQHLNTLEGKKPGNNEGSGAPSPLSKSSPATTVTSPNSTPAKTIDTSPPVDIFATASAAAPVSSAKPSSDLLDLQPDFSGARAGAAAPVPPPTGGATAWGDLLGEDSLAALSSVPSEAPISDPFAPEPSPPTTTTEPASASASATTAVTAATTEVDLFGDAFAASPGEAPAASEGATAPATPAPVAAALDACSGNDPFAPSEGSAEAAPELDLFAMKPPETSAPVVTPTASTAPPVPATAPSPAPTAVAATAATTTAAAAATTTATTSAAAATTAAAPPALDIFGDLFDSAPEVAAASKPDVAPSIDLFGTDAFSSPPRGASPVPESSLTADLLSGSGFHCAEDDRHVPLFFTAVDAFAAPSPASTASPAKAESSGVIDLFGDAFGSSASETQPAPQAVSSSSASADLLAGFGGSFMAPSTTPVTPAQNNLLQPNFEAAFGTTPSTSSSSSFDPSGDLLMPTMAPSGQPAPVSMVPPSPAMSASKGLGSDLDSSLASLVGNLGISGTTSKKGDLQWNAGEKKLTGGANWQPKVTPATWSAGVPPQGTVPPTSSVPPGAGAPSVGQPGAGYGMPPAGTGMTMMPQQPVMFAQPMMRPPFGAAAVPGTQLSPSPTPATQSPKKPPAKDPLADLNIKDFL
Turning to B1, the binding entry in assay [4] was “binds weakly”.

B2: Doublecortin (DCX) (protein, UniProt Q9ESI7 1-365)
chain: MELDFGHFDERDKASRNMRGSRMNGLPSPTHSAHCSFYRTRTLQALSNEKKAKKVRFYRNGDRYFKGIVYAVSSDRFRSFDALLADLTRSLSDNINLLQGVRYIYTIDGSRKIGSMDELEEGESYVCSSDNFFKKVEYTKNVNPNWSVNVKTSANMKAPQSLASSNSAQARENKDFVRPKLVTIIRSGVKPRKAVRVLLNKKTAHSFEQVLTDITEAIKLETGVVKKLYTLDGKQVTCLHDFFGDDDVFIACGPEKFRYAQDDFSLDENECRVMKGNPSATAGPKASPTPQKTSAKSPGPMRRSKSPADSGNDQDANGTSSSQLSTPKSKQSPISTPTSPGSLRKHKDLYLPLSLDDSDSLGDSM
Turning to B2, the binding result in assay [4] and in assay [5] was “binds” in each case.

B3: MYPT1 (protein, UniProt Q10728 1-1032)
chain: MKMADAKQKRNEQLKRWIGSETDLEPPVVKRQKTKVKFDDGAVFLAACSSGDTDEVLKLLHRGADINYANVDGLTALHQACIDDNVDMVKFLVENGANINQPDNEGWIPLHAAASCGYLDIAEFLIGQGAHVGAVNSEGDTPLDIAEEEAMEELLQNEVNRQGVDIEAARKEEERIMLRDARQWLNSGHISDVRHAKSGGTALHVAAAKGYTEVLKLLIQAGYDVNIKDYDGWTPLHAAAHWGKEEACRILVDNLCDMETVNKVGQTAFDVADEDILGYLEELQKKQNLLHSEKRDKKSPLIESTANMENNQPQKTFKNKETLIIEPEKNASRIESLEQEKADEEEEGKKDESSCSSEEDEEDDSESEAETDKTKPMASVTNAHTASTQAAPAAVTTPTLSSNQGTPTSPVKKFPTSTTKISPKEEERKDESPASWRLGLRKTGSYGALAEITASKEAQKEKDTAGVIRSASSPRLSSSLDNKEKEKDNKGTRLAYVAPTIPRRLGSTSDIEEKENRESSNLRTSSSYTRRKWEDDLKKNSSINEGSTYHRSCSFGRRQDDLISCSVPSTTSTPTVTSAAGLQKSFLSSTSTTAKTPPGSSPAGTQSSTSNRLWAEDSTEKEKDSAPTAATILVAPTVVSAAASSTTALTTTTAGTLSSTSEVRERRRSYLTPVRDEESESQRKARSRQARQSRRSTQGVTLTDLQEAEKTIGRSRSTRTREQENEEKDKEEKEKQDKEKQEEKKESEVSREDEYKQKYSRTYDETYARYRPVSTSSSSTPSSSSLSTLGSSLYASSQLNRPNSLVGITSAYSRGLTKDNEREGEKKEEEKEGEDKSQPKSIRERRRPREKRRSTGVSFWTQDSDENEQERQSDTEDGSSKRDTQTDSVSRYDSSSTSSSDRYDSLLGRSASYSYLEERKPYGSRLEKDDSTDFKKLYEQILAENEKLKAQLHDTNMELTDLKLQLEKATQRQERFADRSLLEMEKRERRALERRISEMEEELKMLPDLKADNQRLKDENGALIRVISKLSK
Consider B3, for which the binding entry was “binds weakly” in assay [4], “binds” in assay [5] and “binds” in assay [6].
